Patent publication US20230049350A1, “COMPOUNDS FOR TREATING BRAIN CANCER” (Purdue Pharmaceutical Products L.P., priority 2014, published 2023)
At least one structure is not confirmed: it was looked up by name or label, or the drawing left a doubt.

Tested on: U251-luciferase
Assay: Orthotopic model of U251-luciferase transfected cells
Type: in vivo, mice
Method: Mice isotopically transfected with U251-luciferase in accordance with the procedure of Example 3 were treated with radiotherapy (2 Gy for 5 consecutive days), temozolomide (16 mg/kg for 5 consecutive days, po), radiotherapy and temozolomide (2 Gy for 5 consecutive days and 16 mg/kg for 5 consecutive days, po), EDO-S101 (60 mg/kg, intravenously at days 1, 8 and 15 of the treatment cycle) or control vehicle.
Intracranial tumour growth was monitored with the […] imaging system (Caliper Life Sciences, Hopkinton, MA, USA). Mice were anesthetized with 2% to 4% isofluorane (Baxter, Deerfield, IL, USA) followed by intraperitoneal injections of 150 mg/kg d-luciferin (In Vivo Imaging Solutions). Five animals were measured at the same time and the luminescent camera was set to 1 minute exposure, medium binning, 1 f/stop, blocked excitation filter, and open emission filter. The photographic camera was set to 2 s exposure, medium binning, and 8 f/stop. The field of view was set to 22 cm to capture five mice at once. Serial images were taken on a weekly basis using identical settings. Bioluminescence intensity was quantified using the Living Image software (Caliper Life Sciences).
Before any irradiation mice were anesthetized with a mixture of ketamine (25 mg/ml)/xylazine (5 mg/ml). Anesthetized tumour-bearing mice received a focal irradiation at the dose of 2 Gy for 5 consecutive days. Irradiation was delivered using an X-ray linear accelerator at a dose rate of 200 cGy/min at room temperature. All mice were shielded with a specially designed lead apparatus to allow irradiation to the […]. Mice were kept under these conditions until all irradiation finished.
All images were obtained in the transverse plane using the following sequences: transverse T2-weighted turbo spin-echo (TSE) sequence (repetition time [TR] msec/echo time [TE] msec) 6766/120, number of signal acquired 4, matrix of 192 × 192) applied with a section thickness of […], an intersection gap of 0.0 mm, and a flip angle of 160 °. The field of view was 36 × 60 mm^2, which included the tumour in its entirety with a resultant voxel size of 0.3 × 0.3 × 1.0 mm^3.
Continuous variables were summarized as mean and standard deviation (SD) or as median and 95% Cl for the median. For continuous variables not normally distributed, statistical comparisons between control and treated groups were established by carrying out the Kruskal-Wallis Tests. For continuous variables normally distributed, statistical comparisons between control and treated groups were established by carrying out the ANOVA test or by Student t test for unpaired data (for two comparisons).

Cn1nnc2c(C(N)=O)ncn2c1=O [temozolomide]
mice displaying a large lesion (number) (drug alone, 50 days after beginning of treatment): 2 of the 13
mice with tumours of some grade (number) (drug alone, 50 days after beginning of treatment, control 8 out of 11): 5 out of 13
lesions that were large lesions (with radiotherapy 2 Gy x 5 days, of the 2 mice with lesions): both of these were large lesions
mice displaying lesions at the end of the study (number) (with radiotherapy 2 Gy x 5 days, temozolomide 16 mg/kg po x 5 days): 2 of the 11
